Measured values taken from patent publication US5707963A (Health Research, Incorporated, priority 1996, dated 1998).

Experiment: peptide synthesis
Details: whole synthesis

## Leu Ser Glu Asp Lys Leu Leu Ala Cys Gly Glu Gly Ala Ala Asp Ile ile Ile Gly His Leu Cys Ile Arg His Glu Met Thr Pro Val Ash Pro Gly Val (LSEDKLLACGEGAADIIIGHLCIRHEMTPVNPGV)
  final HPLC purity: 99.9%
